Results taken from paper PMC10694608.
No constants are given. Whether binding was seen depends on the method and setting. Binding seen in cells or lysates may run through a third protein. A yes stands for co-enrichment or nearness to the bait. Other partners may have been found.

The chains behind the UniProt entries cited, without tags or fusion partners.
UniProt P61586: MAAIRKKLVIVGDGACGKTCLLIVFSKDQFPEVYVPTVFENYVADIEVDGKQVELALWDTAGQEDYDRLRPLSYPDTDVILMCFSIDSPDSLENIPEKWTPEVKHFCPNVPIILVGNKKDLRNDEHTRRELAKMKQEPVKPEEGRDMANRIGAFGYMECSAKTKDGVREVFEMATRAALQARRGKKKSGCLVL
UniProt Q16513: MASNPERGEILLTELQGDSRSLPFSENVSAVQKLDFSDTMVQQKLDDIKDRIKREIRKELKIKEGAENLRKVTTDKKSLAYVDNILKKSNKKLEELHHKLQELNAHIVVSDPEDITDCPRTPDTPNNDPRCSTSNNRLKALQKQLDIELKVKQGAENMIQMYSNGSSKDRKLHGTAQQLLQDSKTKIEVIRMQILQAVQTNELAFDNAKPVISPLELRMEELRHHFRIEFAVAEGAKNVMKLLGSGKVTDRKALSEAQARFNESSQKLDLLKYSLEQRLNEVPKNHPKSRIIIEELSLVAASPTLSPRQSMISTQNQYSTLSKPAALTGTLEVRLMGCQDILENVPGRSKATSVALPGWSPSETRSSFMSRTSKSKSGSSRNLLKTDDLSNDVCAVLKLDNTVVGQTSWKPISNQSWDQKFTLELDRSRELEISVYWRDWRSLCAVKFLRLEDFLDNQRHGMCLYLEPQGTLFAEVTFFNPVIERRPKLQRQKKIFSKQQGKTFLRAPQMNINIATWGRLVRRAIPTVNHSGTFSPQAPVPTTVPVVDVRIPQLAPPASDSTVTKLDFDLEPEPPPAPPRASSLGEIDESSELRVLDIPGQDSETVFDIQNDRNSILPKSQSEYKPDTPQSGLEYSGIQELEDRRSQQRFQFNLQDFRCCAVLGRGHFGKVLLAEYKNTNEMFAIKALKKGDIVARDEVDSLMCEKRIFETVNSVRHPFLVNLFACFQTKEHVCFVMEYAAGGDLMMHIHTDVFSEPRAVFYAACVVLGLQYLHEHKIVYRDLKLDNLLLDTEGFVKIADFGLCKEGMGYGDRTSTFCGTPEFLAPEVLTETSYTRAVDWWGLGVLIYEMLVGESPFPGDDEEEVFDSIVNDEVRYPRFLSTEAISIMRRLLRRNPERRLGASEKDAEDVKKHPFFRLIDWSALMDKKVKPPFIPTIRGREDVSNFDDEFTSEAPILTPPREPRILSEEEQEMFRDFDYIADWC
UniProt Q9BST9: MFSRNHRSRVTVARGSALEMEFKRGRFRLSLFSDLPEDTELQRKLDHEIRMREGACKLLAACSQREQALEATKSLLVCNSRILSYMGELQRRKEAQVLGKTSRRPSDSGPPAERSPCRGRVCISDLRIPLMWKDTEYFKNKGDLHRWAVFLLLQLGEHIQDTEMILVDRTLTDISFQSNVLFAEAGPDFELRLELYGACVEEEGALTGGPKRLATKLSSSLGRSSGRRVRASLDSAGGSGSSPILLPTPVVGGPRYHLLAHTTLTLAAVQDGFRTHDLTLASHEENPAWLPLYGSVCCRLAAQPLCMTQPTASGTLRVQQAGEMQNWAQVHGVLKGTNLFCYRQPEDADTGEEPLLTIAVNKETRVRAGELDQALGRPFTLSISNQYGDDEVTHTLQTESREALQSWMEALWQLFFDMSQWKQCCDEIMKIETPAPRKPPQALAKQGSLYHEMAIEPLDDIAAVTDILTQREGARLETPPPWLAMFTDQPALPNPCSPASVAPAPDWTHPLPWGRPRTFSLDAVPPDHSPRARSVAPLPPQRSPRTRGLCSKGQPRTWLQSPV
UniProt Q6P5Z2: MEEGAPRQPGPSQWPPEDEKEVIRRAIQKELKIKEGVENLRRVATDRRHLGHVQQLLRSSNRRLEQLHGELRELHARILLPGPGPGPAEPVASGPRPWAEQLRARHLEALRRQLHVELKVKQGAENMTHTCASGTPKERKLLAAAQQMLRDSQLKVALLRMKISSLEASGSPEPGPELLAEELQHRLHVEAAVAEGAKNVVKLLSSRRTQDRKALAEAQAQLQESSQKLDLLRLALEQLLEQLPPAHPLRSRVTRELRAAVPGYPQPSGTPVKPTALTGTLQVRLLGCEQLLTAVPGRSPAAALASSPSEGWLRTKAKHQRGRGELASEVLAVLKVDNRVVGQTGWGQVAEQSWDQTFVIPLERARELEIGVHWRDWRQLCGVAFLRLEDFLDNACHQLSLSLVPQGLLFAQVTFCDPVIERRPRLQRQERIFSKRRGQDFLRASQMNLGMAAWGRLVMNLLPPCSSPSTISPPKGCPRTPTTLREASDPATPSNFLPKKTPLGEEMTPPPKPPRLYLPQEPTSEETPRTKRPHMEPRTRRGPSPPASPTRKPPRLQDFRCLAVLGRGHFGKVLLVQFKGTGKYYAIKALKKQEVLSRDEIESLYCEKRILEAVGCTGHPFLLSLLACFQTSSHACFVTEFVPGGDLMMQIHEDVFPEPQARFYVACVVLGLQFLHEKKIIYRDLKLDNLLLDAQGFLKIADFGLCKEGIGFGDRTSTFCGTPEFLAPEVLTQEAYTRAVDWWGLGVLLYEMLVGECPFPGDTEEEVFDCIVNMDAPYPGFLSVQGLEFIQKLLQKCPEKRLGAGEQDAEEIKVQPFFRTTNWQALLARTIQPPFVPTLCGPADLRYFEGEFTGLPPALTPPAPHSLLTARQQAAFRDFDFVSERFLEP

Biological target: FLAG-tagged RhoA (human) (UniProt P61586)
Test: affinity purification with mass spectrometry; FLAG-tagged RhoA induced with 1 μM doxycycline for 42 h in Gαq-expressing HEK293 cells; lysate (50 mM Tris pH 7.4, 150 mM NaCl, 1 mM EDTA, 0.5% NP40) on anti-FLAG M2 magnetic beads, 4°C, 2 h; eluted with 3xFLAG peptide; uninduced samples as controls; SAINTexpress BFDR =< 0.05

binding | Substance
binds | PKN2 (from UniProt Q16513 1-984)
binds | Rhotekin (from UniProt Q9BST9 1-563)
binds | PKN3 (from UniProt Q6P5Z2 1-889)
